From PubChem BioAssay AID485298 (National Center for Advancing Translational Sciences (NCATS), 2010)
The whole screen tested about 320,000 compounds, of which about 740 (0.23%) were called active. Inconclusive means that the source gave no clear call. Such entries were picked first, then a sample of the others. Calls come from the whole dose curve; as a rule, active = well fitted activation curve with a large enough effect; inconclusive = small, poorly fitted or top-dose-only effect; inactive = no such curve, though single readings can be large or run the other way. Potencies beside an inconclusive call are fits to weak or partial responses and may not hold up.

Test: qHTS Assay for Small Molecule Inhibitors of Mitochondrial Division or Activators of Mitochondrial Fusion; note: nearly all actives have a fitted effect of over 45% in size;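 for growth rescue (activation): temperature-sensitive fusion mutants such as fzo1-1 at 37 °C on non-fermentable ethanol glycerol medium; % of control where 0% means no effect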
Conditions: S. cerevisiae fusion-defective mutant growth rescue, CellTiterGlo 48 h; growth rescue (activation): at 46.1 µM (top of the series) unless noted
How it was run: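 Compounds are tested for their ability to restore growth of mitochondrial fusion-defective yeast strains at non-permissive 37C in YPEG medium over 48 hours. Viability is quantified by luciferase luminescence.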
Potency is the fitted concentration of half-maximal effect.

SMILES	Potency	growth rescue (activation)
COc1cc2cncc(Cc3ccc(Cl)cc3)c2cc1OC	inconclusive: 15.8 µM [activator, single point]	
Cc1cc(C)c(-c2csc(NC(=O)/C=C/c3cccs3)n2)c(C)c1	inconclusive: 11.2 µM [activator, partial curve]	
Cc1ccc(C(=O)Nc2nc(-c3ccccn3)cs2)s1	inconclusive: 17.8 µM [activator, single point]	
COc1ccc2c(c1)c(CC(=O)Nc1nnc(C3CC3)s1)c(C)n2C(=O)c1ccc(Cl)cc1		inactive: 8.32%
COc1ccc(C(=O)COC(=O)c2cccnc2Cl)c(OC)c1		inactive: 3.05%
O=C(NCC1(N2CCOCC2)CCCCC1)c1cccc(S(=O)(=O)N2CCc3ccccc3C2)c1		inactive: -0.282%
CC(=O)c1ccc(Sc2ccccc2)c([N+](=O)[O-])c1	inconclusive: 7.08 µM [activator, partial curve]	
Cc1ccc(CC(=O)Nc2nc3ccccc3[nH]2)cc1C		inactive: -6.97%
CCOc1ccc(N2CC(C(=O)N3CCCc4ccccc43)CC2=O)cc1 (centres undefined)	inconclusive: 2.51 µM [activator, partial curve, poor fit]	
OC(CSc1c(Cl)cccc1Cl)CN1CCN(c2ccc(F)cc2)CC1 (centres undefined)	inconclusive: 12.6 µM [activator, single point]	
CCC(=O)c1ccc2c(c1)OCCO2		inactive: -3.46%
Cc1ccc(C)c2[nH]c(=O)c(CN(Cc3ccco3)C(=O)Nc3ccccc3)cc12	active: 14.1 µM	
Nc1ccc(SCc2nc3cccc4c3n2CCC4)cc1	inconclusive: 5.62 µM [activator, single point]	
O=C(CN1CCN(S(=O)(=O)c2ccccc2Cl)CC1)NCC1(N2CCOCC2)CCCCC1		inactive: 3.59%
COc1ccc2c(c1OC)C(=O)OC2Nc1nc(-c2cc3cc(Br)ccc3oc2=O)cs1 (centres undefined)	inconclusive: 7.08 µM [activator, partial curve]	
COc1ccc(N/C=C2/CCCCC2=O)cc1	inconclusive: 0.501 µM [activator, full curve, poor fit]	
O=C(COC(=O)C1C2CC3OC(=O)C1C3C2)Nc1ccccc1 (centres undefined)	inconclusive: 12.6 µM [activator, partial curve]	
COc1cc(CCC(=O)Nc2c(C(=O)N3CCN(c4ccccc4)CC3)oc3ccccc23)on1	inconclusive: 14.1 µM [activator, single point]	
COC(=O)c1[nH]c2ccc(C)cc2c1NC(=O)CN1CCN(c2ccccc2)CC1	inconclusive: 20 µM [activator, single point]	
Cc1cc(C(=O)NCCC2=CCCCC2)ccc1[N+](=O)[O-]	inconclusive: 20 µM [activator, single point]	
Oc1c(N=Nc2ccc(F)cc2)ccc2ccccc12		inactive: -3.66%
O=C(Cn1c2c(c(-c3ccccc3)cc1=O)CCCC2)N1CCCCCC1	inconclusive: 25.1 µM [activator, single point]	
NCCCn1c(C(=O)c2cc(Cl)c(N)c(Cl)c2)c2ccc([N+](=O)[O-])cc2[n+]1[O-]	inconclusive: 11.2 µM [activator, partial curve]	

SMILES	Potency	growth rescue (activation)
O=S(=O)(Nc1ccc(-c2nc3cccnc3s2)cc1)c1cc(F)ccc1F		inactive: 7.99%
Cc1cccc(N2CCN(CCCNC(=O)C3CCCN(c4ncnc5c4nc4n5CCCCC4)C3)CC2C)c1 (centres undefined)		inactive: -5.53%
O=C(NCCc1ccccn1)c1cc(-c2ccc(Cl)cc2)nc2ccccc12	inconclusive: 17.8 µM [activator, single point]	
CC1(C)Cc2c(cnn2-c2ccccc2)C(=O)/C1=N\NC(=O)c1ccccc1O	inconclusive: 17.8 µM [activator, partial curve]	
Cc1ccc(N=Nc2c(C)[nH]n(C(N)=S)c2=O)cc1C		inactive: -2.09%
COc1ccccc1-c1nc(C#N)c(N2CCC(Cc3ccccc3)CC2)o1	inconclusive: 10 µM [activator, partial curve]	
Cc1ccc(C)c(N2CCN(C(=O)CCC(=O)Nc3nnc(CC(C)C)s3)CC2)c1		inactive: -0.864%
Cc1ccc(C)c(S(=O)(=O)Nc2nc(C)c(C(=O)Nc3ccccc3)s2)c1	inconclusive: 31.6 µM [activator, single point]	
COc1cc(/C=C/C(=O)NC(C)C)ccc1OCc1ccccc1	inconclusive: 12.6 µM [activator, partial curve]	
O=C1C=C(c2ccc3ncccc3c2)C[C@@H](c2ccc(Cl)cc2)C1	inconclusive: 22.4 µM [activator, single point]	
NC(=O)c1nsnc1-c1ccccc1O	inconclusive: 11.2 µM [activator, partial curve, poor fit]	
Cc1nc(N2CCN(Cc3ccc4c(c3)OCO4)CC2)nc2c1C(=O)CC(c1ccco1)C2 (centres undefined)	inconclusive: 17.8 µM [activator, partial curve]	
COc1ccccc1CNC(=O)c1ccccc1OCc1ccc(F)cc1	inconclusive: 22.4 µM [activator, single point]	
COc1ccccc1C/C(N)=N/O	inconclusive: 35.5 µM [activator, single point]	
Cc1ccc(S(=O)(=O)N2CCN(C(=O)CCCOc3ccc(Cl)cc3C)CC2)cc1	inconclusive: 22.4 µM [activator, single point]	
C(=N\n1cnnc1)/c1cccn1-c1ccccc1		inactive: 3.12%
Oc1ccc(-c2nc3ncccn3c2Nc2ccc3c(c2)OCO3)cc1		inactive: -0.505%
Cc1ccc(N=C2NC(=O)/C(=C/c3cccs3)S2)cc1C	inconclusive: 14.1 µM [activator, partial curve]	
COc1c(F)c(F)c(C(=O)Nc2ccc(-c3nc4ccccc4[nH]3)cc2)c(F)c1F	inconclusive: 20 µM [activator, single point]	
CCc1ccccc1NC(=O)c1ccccc1Sc1ccc([N+](=O)[O-])cc1Cl	inconclusive: 10 µM [activator, partial curve]	
O=C1c2ccccc2N2C(=O)c3ccccc3C2N1O (centres undefined)		inactive: 1.7%
Cc1ccc2nc(-c3ccc(SCC(=O)Nc4nnc(C)s4)nc3)[nH]c2c1		inactive: -3.82%
NNC(=O)c1ccc(Cn2cc(Br)cn2)cc1	inconclusive: 3.98 µM [activator, single point]	

SMILES	Potency	growth rescue (activation)
COc1cccc(S(=O)(=O)NCc2ccc(C(=O)N3CCN(c4ccccc4)CC3)cc2)c1		inactive: 1.72%
O=C(Nc1ccc(Br)c(C(F)(F)F)c1)c1ccccc1	active: 22.4 µM	
O=c1[nH]c(CN2CCN(S(=O)(=O)c3ccc(Cl)cc3)CC2)nc2cc(Cl)ccc12	inconclusive: 14.1 µM [activator, partial curve]	
COc1ccc(OC)c(NC(=O)CN(C)CCOc2ccc(Br)cc2)c1	inconclusive: 35.5 µM [activator, partial curve, poor fit]	
COc1cc2ccccc2cc1C(=O)NC1CCCCC1	inconclusive: 12.6 µM [activator, partial curve]	
O=C(NC1CCCCC1)C(c1cccs1)N(Cc1cccs1)C(=O)c1cccs1 (centres undefined)	inconclusive: 11.2 µM [activator, partial curve]	
CC(Sc1nnc(NC2CCCCC2)s1)C(=O)Nc1ccc2c(c1)C(=O)c1ccccc1C2=O (centres undefined)	inconclusive: 7.94 µM [activator, partial curve]	
CC(C)c1nc(N2CCN(C(=O)c3ccco3)CC2)c(C#N)c2c1COC(C)(C)C2	inconclusive: 20 µM [activator, single point]	
CCOc1ccc(Oc2c(/C=N/NC(=O)COc3ccccc3OC)c(C)nn2-c2ccccc2)cc1	inconclusive: 35.5 µM [activator, single point]	
Cc1ccc(Nc2nnc(SCC(=O)c3ccc(Br)s3)s2)c(C)c1	inconclusive: 22.4 µM [activator, single point]	
O=C(COc1cccnc1[N+](=O)[O-])N1CCN(C(=O)c2ccco2)CC1	inconclusive: 35.5 µM [activator, single point]	
Cc1cnc(N2C(=O)c3ccc([N+](=O)[O-])cc3C2=O)s1	inconclusive: 11.2 µM [activator, single point]	
CN(C)S(=O)(=O)c1ccc(C(=O)Nc2nnc(-c3cccs3)o2)cc1		inactive: 8.81%
CCC(=O)N(CCc1ccccc1)Cc1cc2ccc(OC)cc2[nH]c1=O	inconclusive: 7.94 µM [activator, partial curve]	
Cc1ccc(NC(=O)c2nc[nH]c2C(=O)N(C)Cc2ccccc2)cc1	inconclusive: 15.8 µM [activator, single point]	
CCOc1ccc(S(=O)(=O)N2CCN(Cc3ccc4c(c3)OCO4)CC2)cc1C	inconclusive: 35.5 µM [activator, single point]	
C=CCN1C(=O)S/C(=C/c2ccc(Sc3nc4ccccc4[nH]3)o2)C1=O	active: 22.4 µM	
CN(C(=O)C1CCC(=O)N(CCc2ccc(Cl)cc2)C1)C1CCOCC1 (centres undefined)		inactive: -0.927%
COc1ccc(C2CC(c3cccs3)=NN2c2ccc(C=O)cc2)cc1 (centres undefined)	active: 22.4 µM	
C/C(CC(=O)Nc1ccccn1)=N\NC(=O)c1ccccc1O	inconclusive: 35.5 µM [activator, single point]	
N#CC1=C(N)C2=CCCC[C@H]2[C@H](c2cccc(F)c2)C1(C#N)C#N	inconclusive: 15.8 µM [activator, partial curve]	
CCc1noc(C)c1C(=O)Nc1nc2c(C)cc(C)cc2s1	inconclusive: 17.8 µM [activator, partial curve]	
O=C(N/N=C/c1ccc(O)c(O)c1)c1cc(-c2ccccc2)nc2ccccc12		inactive: 1.87%

3 records picked at random from the list so far, as already listed:
SMILES	Potency	growth rescue (activation)
O=c1[nH]c(CN2CCN(S(=O)(=O)c3ccc(Cl)cc3)CC2)nc2cc(Cl)ccc12	inconclusive: 14.1 µM [activator, partial curve]	
Cc1cnc(N2C(=O)c3ccc([N+](=O)[O-])cc3C2=O)s1	inconclusive: 11.2 µM [activator, single point]	
CCOc1ccc(S(=O)(=O)N2CCN(Cc3ccc4c(c3)OCO4)CC2)cc1C	inconclusive: 35.5 µM [activator, single point]	
